The text below walks through data of article PMC6039501.

Chains of the proteins cited; added tags and fusions are not shown. Lines headed by an entry give the natural chain unless they say otherwise; changes in a name come on top. Residues count along the entry.
UniProt O15524: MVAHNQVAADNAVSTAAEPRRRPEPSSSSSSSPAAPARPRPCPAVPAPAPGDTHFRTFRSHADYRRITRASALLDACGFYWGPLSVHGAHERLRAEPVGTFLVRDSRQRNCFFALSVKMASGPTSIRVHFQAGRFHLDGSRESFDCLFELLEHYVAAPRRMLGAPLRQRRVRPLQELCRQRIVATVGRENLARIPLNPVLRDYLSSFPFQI
GST-SOCS1 SH2 domain: residues 79-174 of O15524
UniProt Q15369: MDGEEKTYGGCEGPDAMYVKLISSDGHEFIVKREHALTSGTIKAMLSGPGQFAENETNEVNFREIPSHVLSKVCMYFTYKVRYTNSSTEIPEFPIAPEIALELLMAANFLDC

No constants are given. Whether binding was seen depends on the method and setting. Binding seen in cells or lysates may run through a third protein. Some entries that bind do so weakly or less than the wild type. Where a sequence is shown, tags or fusion partners need not be part of it.

Test [1] addresses T1, Flag-CUEDC2 (in KG-1 cells) (UniProt Q9H467).
T1 sequence: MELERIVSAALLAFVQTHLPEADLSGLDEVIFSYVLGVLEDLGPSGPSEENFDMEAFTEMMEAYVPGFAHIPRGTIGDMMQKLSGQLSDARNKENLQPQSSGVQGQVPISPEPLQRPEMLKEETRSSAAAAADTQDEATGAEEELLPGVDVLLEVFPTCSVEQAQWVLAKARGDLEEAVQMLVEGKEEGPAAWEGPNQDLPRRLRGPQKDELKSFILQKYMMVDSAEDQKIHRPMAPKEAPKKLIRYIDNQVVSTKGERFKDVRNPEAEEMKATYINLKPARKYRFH
The experiment in a line: co-IP; KG-1 cells transfected with Flag-CUEDC2 and Myc-SOCS1; whole cell lysates immunoprecipitated with anti-Myc or anti-Flag monoclonal antibody, blotted with the other.

Test [2] concerns the target T2, GST-CUEDC2 (full-length CUEDC2 protein) (UniProt Q9H467).
T2 sequence: T1 sequence
The experiment in a line: pull-down; GST, GST-CUEDC2 or its truncated fusion proteins bound to GST beads, incubated with lysate of KG-1 cells transfected with Myc-SOCS1; binding buffer with protease inhibitors, 4 °C, 6 h; anti-Myc immunoblot; only the target purified. In general terms: A western blot detects proteins with antibodies after separation by electrophoresis.

The next test concerns the target T3, GST-CUEDC2 CUE domain (UniProt Q9H467).
T3 sequence: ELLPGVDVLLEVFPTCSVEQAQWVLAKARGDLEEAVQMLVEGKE
The test is described as above.

Test [3] concerns the target Myc-SOCS1 (suppressor of cytokine signalling-1) (UniProt O15524). The experiment in a line: co-IP; KG-1 cells transfected with Flag-CUEDC2 and Myc-SOCS1; whole cell lysates immunoprecipitated with anti-Myc or anti-Flag monoclonal antibody, blotted with the other.
For test [4], the target named is GST-SOCS1 (full-length SOCS1 protein) (UniProt O15524). The experiment in a line: pull-down; purified GST, GST-SOCS1 or truncated GST-SOCS1 fusion proteins incubated with lysate of KG-1 cells transiently transfected with Flag-CUEDC2; anti-Flag immunoblot; only the target purified.
The target of a further test is GST-SOCS1 SH2 domain (UniProt O15524). The description is as above.
The target in test [5] is GST-Elongin C fusion protein (UniProt Q15369). The experiment in a line: pull-down; purified GST or GST-Elongin C incubated with lysates of HEK293T cells cotransfected with HA-SOCS1, with Flag-CUEDC2 or Flag vector, with or without Myc-CUL2; inputs normalised; anti-Flag, anti-HA and anti-Myc immunoblots; only the target purified.

For the molecule “Myc-SOCS1 (suppressor of cytokine signalling-1) (from UniProt O15524 1-211)”, the binding entry (in test [1]; in test [2]; with GST-CUEDC2 CUE domain) was “binds” in each case.

B1: Flag-CUEDC2 (in KG-1 cells) (protein, UniProt Q9H467 1-287)
chain: T1 sequence
For B1, the binding entry (in test [3]; in test [4]; with GST-SOCS1 SH2 domain) was “binds” throughout.

B2: Flag-CUEDC2 (in HEK293T cells) (protein, UniProt Q9H467 1-287)
chain: T1 sequence
With B2, in test [5], the binding result is given as “no binding”.
